Assay results taken from PubChem BioAssay AID504444 (National Center for Advancing Translational Sciences (NCATS), 2011).
In all, about 360,000 compounds went through this assay and about 7,500 (2.1%) were called active. This list was built around the results that the source calls inconclusive (neither active nor inactive); the mix of calls is not that of the screen. Calls follow the shape of the dose curve; as a rule, active = well fitted inhibition curve with a large enough effect; inconclusive = small, poorly fitted or top-dose-only effect, or effect the other way; inactive = flat fitted curve, though single readings scatter. Potencies beside an inconclusive call are fits to weak or partial responses and may not hold up.

Experiment: Nrf2 qHTS screen for inhibitors; also: nearly all actives have a fitted effect of over 60% in size
Settings: A549 ARE-Fluc reporter, luciferase luminescence, 18-24 h; activity change, negative = inhibition: at 46 µM (top of the series)
How it was run: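 A549 ARE_Fluc cells, 5000/well, 5% FBS OPTI-MEM; compounds in dose-response, 18-24 h at 37 °C/5% CO2; CellTiter-Fluor viability read (Ex 405/Em 525), then BugLite luciferase luminescence = Nrf2 activity.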
% is scaled to controls: 0 for no effect and ±100 for the full control effect; potency is read from the fitted curve at half-maximal effect.

| Structure (SMILES) | Potency | activity change, negative = inhibition |
| --- | --- | --- |
| COc1ccccc1N1CCN(C(=O)c2cnn(-c3ccc(C)c(C)c3)c2C2CCN(C(=O)OC(C)(C)C)CC2)CC1 | inconclusive: 18.4 µM [falling, single point] | – |
| COC(=O)C1=C(C)OC(N)=C(C#N)C1c1cc(OC)c(OCC(N)=O)cc1Cl (configuration not stated) | inconclusive: 4.61 µM [falling, full curve] | – |
| COC(=O)c1sc(-c2ccc(Cl)cc2)cc1NC(=O)COCC(=O)O | inconclusive: 5.17 µM [falling, full curve, poor fit] | – |
| COc1cccc(CNC(=O)CSCc2cnn(-c3ccccc3)c2-n2cccc2)c1 | inconclusive: 8.2 µM [falling, full curve, poor fit] | – |
| Cc1ccc2c(c1)c1c(n2CC(O)Cn2c(C)nc3ccccc32)CCCC1 (configuration not stated) | – | inactive: -4.81% |
| COc1ccccc1-c1nnc2n(CCc3ccccc3)c(=O)c3ccccc3n12 | – | inactive: -13.6% |
| COc1ccc(C(=O)NC2CCN(C(=S)Nc3ccc(C)c(C)c3)CC2)cc1 | inconclusive: 1.84 µM [falling, partial curve, poor fit] | – |
| COc1ccc(N=Cc2nc(-c3ccccc3)oc2OC(=O)c2ccccc2)cc1 | inconclusive: 1.84 µM [activator, full curve, poor fit] | – |
| COc1cc(/C=N/Nc2ccccc2[N+](=O)[O-])ccc1OC(=O)c1ccccc1F | inconclusive: 32.6 µM [activator, partial curve, poor fit] | – |
| CC(=O)Nc1ccc(CNC(=O)C[N+]2(C)CCOCC2)cc1 | inconclusive: 3.26 µM [activator, partial curve, poor fit] | – |
| Cc1ccccc1OCC(=O)N/N=C/c1ccccn1 | – | inactive: -2.91% |
| CC(C)c1ccc(NC(=O)CSc2nc(=O)n(CCCN3CCOCC3)c3c2CCCC3)cc1 | inconclusive: 0.651 µM [activator, full curve, poor fit] | – |
| Cc1ccc2nc(SCC(=O)N3CCOCC3)[nH]c2c1 | inconclusive: 0.517 µM [activator, full curve] | – |
| CCN(CC)S(=O)(=O)c1cc(NC(=O)COC(=O)CCC(=O)c2cccs2)ccc1C | inconclusive: 23.1 µM [activator, partial curve, poor fit] | – |
| CC(C)(C)c1cc(C(=O)NCc2ccco2)ccn1 | – | inactive: 7.35% |
| CN(C)CCCNc1ncnc2c1cnn2-c1ccccc1 | – | inactive: 13.5% |
| CN(C)CCN=c1cc(-c2ccccc2)oc2ccc(Cl)cc12 | inconclusive: 20.6 µM [activator, partial curve] | – |
| Cc1ccc(S(=O)(=O)N2CCCC2C(=O)NCc2ccc3c(c2)OCO3)cc1 (configuration not stated) | inconclusive: 5.17 µM [falling, partial curve] | – |
| Cc1ccc(S(=O)(=O)N2CCC(C(=O)OC(C)C(=O)NC3CCCCC3C)CC2)cc1C (configuration not stated) | inconclusive: 8.2 µM [falling, partial curve, poor fit] | – |
| CC(C)CN(C(=O)C(C)N1C(=O)c2ccccc2C1=O)c1c(N)n(Cc2ccccc2)c(=O)[nH]c1=O (configuration not stated) | – | inactive: 0.762% |
| COc1cc2c(cc1OC)C(C)N(C(=O)[C@@H](NC(=O)c1ccccc1)C(C)C)CC2 (some centres not stated) | inconclusive: 13 µM [activator, partial curve, poor fit] | – |

| Structure (SMILES) | Potency | activity change, negative = inhibition |
| --- | --- | --- |
| Cc1cccc(-c2nc(C#N)c(N3CCCCC3)o2)c1 | inconclusive: 8.2 µM [activator, partial curve] | – |
| Nc1c(-c2nc(-c3cccs3)no2)nnn1-c1cccc(F)c1 | inconclusive: 1.84 µM [activator, partial curve] | – |
| COc1ccc(/C=C/C(=O)NC(C)C)cc1Br | inconclusive: 1.16 µM [falling, full curve] | – |
| COC(=O)c1c(NC(=O)C2CC(=O)NN2Cc2ccccc2)sc(C)c1C (configuration not stated) | inconclusive: 7.31 µM [falling, partial curve, poor fit] | – |
| Cn1ncc(Cl)c1C(=O)N1CCN(c2ccc(Cl)c(Cl)c2)CC1 | inconclusive: 29.1 µM [falling, single point] | – |
| Cc1ccc(C)c(CN2C(=O)c3ccccc3S(=O)(=O)c3ccc(C(=O)N4CCCC4)cc32)c1 | inconclusive: 23.1 µM [falling, single point] | – |
| CCS(=O)(=O)c1ccc2oc(SCC(=O)NCCc3ccccc3)nc2c1 | inconclusive: 18.4 µM [falling, partial curve, poor fit] | – |
| O=C(Nc1ccc2c(c1)OCO2)c1n[nH]c(=O)c2ccccc12 | inconclusive: 3.66 µM [activator, partial curve, poor fit] | – |
| O=C(Nc1ccc2c(c1)OCO2)c1cc(Cl)ccn1 | inconclusive: 5.8 µM [activator, partial curve] | – |
| Cc1c(NC(=O)C2CCN(S(=O)(=O)c3ccc(Cl)cc3)CC2)c(=O)n(-c2ccccc2)n1C | inconclusive: 0.103 µM [falling, full curve] | – |
| CC1(C)CCSC(/C=C/c2ccccc2)=N1 | inconclusive: 29.1 µM [falling, single point] | – |
| Cc1cc(N)ccc1N1CCCC1 | – | inactive: 13.8% |
| Cn1cnc(S(=O)(=O)N2CCN(c3ccccc3)CC2)c1 | – | inactive: 3.79% |
| CC(=O)c1sc(N/N=C2\CC3CC2C(C)C3(C)C)nc1C (configuration not stated) | inconclusive: 29.1 µM [activator, single point] | – |
| CCCCCC(=O)NC(=S)Nc1cccc(C(C)=O)c1 | inconclusive: 29.1 µM [activator, single point] | – |
| Cc1cc(Cl)c(S(=O)(=O)N2CCN(c3ccc(F)cc3)CC2)cc1OCC(=O)NC1CCCCC1 | active: 0.291 µM | – |
| COc1ccc2[nH]c(=O)c(CN(CCCN(C)C)C(=O)Nc3ccccc3)cc2c1 | – | inactive: -0.343% |
| COc1cc(NC(=O)c2ccc(C(=O)c3ccccc3)cc2)cc(OC)c1OC | inconclusive: 16.4 µM [falling, single point] | – |
| Cc1ccc(C(=O)/C=C/Nc2ccccc2C(N)=O)cc1 | inconclusive: 0.231 µM [activator, full curve] | – |
| O=C(O)c1ccc(-n2cc(-c3cc4ccccc4oc3=O)[nH]c2=S)cc1 | inconclusive: 11.6 µM [activator, partial curve] | – |
| Cc1cc([N+](=O)[O-])ccc1NS(=O)(=O)c1ccccc1 | inconclusive: 18.4 µM [falling, partial curve] | – |

Single entries from the results shown.
COc1ccccc1N1CCN(C(=O)c2cnn(-c3ccc(C)c(C)c3)c2C2CCN(C(=O)OC(C)(C)C)CC2)CC1 | Potency: inconclusive: 18.4 µM [falling, single point]
COC(=O)c1c(NC(=O)C2CC(=O)NN2Cc2ccccc2)sc(C)c1C (configuration not stated) | Potency: inconclusive: 7.31 µM [falling, partial curve, poor fit]
